Data on 59 compounds can be found in PubChem BioAssay AID2685 (National Center for Advancing Translational Sciences (NCATS), 2010).

This is one part of the list. These are further read-outs of the screen, such as a control signal, another cell line or another target. No call is given for them. Compounds called inactive in the main read-out are mostly missing here. Potencies come from curve fits of mixed quality, noted in brackets.

The assay is described as follows: qHTS Assay for Lipid Storage Modulators in Drosophila S3 Cells.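 On cell number change: cells counted by Cell Tracker Red CMTPX staining in the red channel.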 As to conditions: BODIPY lipid droplet fluorescence, 18-24 h; for cell number change: measured here: cell count max response, cells fed with added oleic acid. In outline:
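Laser-scanning cytometry quantifies lipid droplet accumulation (500–530 nm total intensity; droplet/cell object ratio) in oleic acid-fed (400 uM added) Drosophila S3 cells treated with a concentration series. 20 uM Triacsin C defined 100% inhibition.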

Setting [1] is: measured here: cell number channel AC50, cells fed with added oleic acid.
[2] abbreviates: measured here: lipid fluorescence (Fed channel) AC50, cells fed with added oleic acid.

Turning to `O=C(Nc1ccc(C(=O)N2CCCC2)cc1)c1ccc2c(c1)OCO2`, the cell number change came to 59.9%. Besides, the AC50 under setting [1] was 0.00461 µM [rising, full curve, poor fit]. Besides, the AC50 under setting [2] was 2.91 µM [rising, single point].
As to `O=S(=O)(NCCNS(=O)(=O)c1cccs1)c1cccs1`, the cell number change was -16.6%. For the same compound, the AC50 under setting [2] was 29.1 µM [falling, single point].
Consider `COc1ccc(-c2csc(NC(=O)Cc3ccccc3F)n2)cc1OC`, for which the cell number change is 18.4%. Besides, the AC50 under setting [2] was 0.82 µM [rising, full curve].
`COc1ccc([C@H]2CC(=O)C=C(/C=C/c3ccc(C(F)(F)F)cc3)C2)cc1`: the cell number change was -31.4%. Besides, under setting [1], the AC50 was 29.1 µM [falling, single point]. For the same compound, under setting [2], the AC50 was 10.3 µM [falling, partial curve, poor fit].
As for `O=C(O)C1=CC[C@@H](c2ccc(Cl)cc2)N(S(=O)(=O)c2ccc(Cl)cc2)[C@H]1c1cccc(Cl)c1`, under setting [2], the AC50 was 6.51 µM [rising, single point].
Take `Cc1cccc(NC(=O)CN(C)CC(=O)NC(c2ccccc2)c2ccccc2)c1C`: the cell number change is -37.8%. The half-maximal activity concentration (AC50) under setting [1] was 1.3 µM [falling, partial curve]. Further, under setting [2], the AC50 is 16.4 µM [falling, single point].
Regarding `Cc1cnc(C(=O)NCC(c2ccccc2)c2ccccc2)cn1`, the cell number change was -35.4%. Moreover, under setting [1], the AC50 is 25.9 µM [falling, single point]. In addition, under setting [2], the AC50 was 5.17 µM [rising, single point].
On to `Cc1cc(C)c(N(CC(=O)NC(C)(C)C)C(=O)CNC(=O)c2cccs2)c(C)c1`, for which the cell number change is -43%. Besides, the AC50 under setting [1] is 20.6 µM [falling, partial curve]. Besides, under setting [2], the AC50 was 3.26 µM [falling, full curve, poor fit].
Regarding `Fc1ccccc1Cc1ccc(Cl)nn1`, the cell number change was 45.5%. The AC50 under setting [1] is 8.2 µM [rising, partial curve, poor fit]. For the same compound, the AC50 under setting [2] was 18.4 µM [rising, partial curve].
Consider `Cc1cccc(NS(=O)(=O)c2ccc(C)c(C(=O)NCC(c3cccs3)N(C)C)c2)c1` (stereo unspecified), for which the cell number change came to 198%. The AC50 under setting [1] was 16.4 µM [rising, partial curve].
With `Oc1c(Br)cc(Br)cc1CNc1cnc2ccccc2c1`, the cell number change is -34.9%. The AC50 under setting [1] was 11.6 µM [falling, partial curve, poor fit].
In the case of `COc1ccc2c(c1)c(CC(=O)OC(C)C(=O)N(C)C)c(C)n2C(=O)c1ccc(Cl)cc1` (stereo unspecified), under setting [2], the AC50 was 3.55 µM [falling, single point].
Regarding `O=C(/C=C\c1ccco1)Nc1cc([N+](=O)[O-])ccc1F`, the cell number change amounted to 4.6%. For the same compound, the AC50 under setting [1] is 0.0731 µM [rising, full curve, poor fit].
With `O=C(NCc1ccccn1)c1ccc(Cn2c(=S)[nH]c3ccc(Br)cc3c2=O)cc1`, the cell number change is -53.5%. In addition, the AC50 under setting [1] was 20.6 µM [falling, single point]. Moreover, the AC50 under setting [2] was 20.6 µM [falling, single point].
Regarding `Nc1ccn(CC(=O)NCc2ccc3[nH]ccc3c2)c(=O)n1`, the cell number change came out at 17%. In addition, under setting [2], the AC50 is 1.16 µM [rising, partial curve, poor fit].
In the case of `Cc1cccc(OCCCSc2nc3ccccc3[nH]2)c1`, the cell number change was -19%. Moreover, the AC50 under setting [2] is 1.46 µM [falling, full curve, poor fit].
`CCOC(=O)C1CCN(C(=O)Nc2ccc(OC)c(OC)c2)CC1`: the cell number change was found to be 82%. Moreover, the AC50 under setting [1] was 18.4 µM [rising, single point]. Also, the AC50 under setting [2] is 0.58 µM [rising, single point].
In the case of `CC1(C)CC(=O)C=C(c2ccc(-c3ccccc3)cc2)C1`, the cell number change is -37.3%. For the same compound, under setting [1], the AC50 was 0.231 µM [falling, full curve, poor fit]. For the same compound, the AC50 under setting [2] was 0.731 µM [falling, partial curve].
For `COc1ccccc1CNc1n[nH]c(NCc2ccccc2OC)n1`, the cell number change was determined as 3.44%. Besides, the AC50 under setting [2] was 18.4 µM [rising, partial curve, poor fit].
Regarding `CCOc1ccc2nc(N3CCCC(C(=O)NCCCN4CC(C)CC(C)C4)C3)sc2c1` (stereo unspecified), the cell number change turned out to be 30.8%. The AC50 under setting [1] is 0.461 µM [rising, full curve, poor fit].
Take `Cc1cccc(NC(=S)N2CCN(S(=O)(=O)c3ccccc3)CC2)c1`: the cell number change was 10.7%. In addition, the AC50 under setting [2] is 18.4 µM [rising, partial curve].
As for `CN(CC(=O)Nc1ccc(F)cc1)C(=O)COC(=O)c1ccccc1`, the cell number change was -3.61%.
With `Fc1ccc(/C=N/n2cnn(Cc3ccccc3Cl)c2=S)cc1`, the AC50 under setting [2] was 29.1 µM [rising, single point].
Turning to `O=S(=O)(Nc1cccc(-c2ccc3nncn3n2)c1)c1cccc(F)c1`, the cell number change is -18%.
Consider `O=C(O)CC1CCS(=O)(=O)C1` (stereo unspecified), for which the cell number change stood at 7.8%. The AC50 under setting [2] is 0.411 µM [falling, single point].
Turning to `Cc1nn(-c2ccccc2)c(C)c1/C=N/n1c(-c2ccncc2)n[nH]c1=S`, the cell number change came to 17.7%.
Turning to `COc1ccc(/C=N/NC(=O)c2ccc(OC)c(OC)c2)cc1COc1c(F)c(F)c(F)c(F)c1F`, the cell number change worked out at 5.49%.
In the case of `CCCCCCc1cc2cc(-c3nnc(-c4ccccc4O)o3)c(=O)oc2cc1O`, the cell number change was determined as 1.08%. Moreover, the AC50 under setting [2] was 29.1 µM [rising, single point].
Regarding `c1cncc(-c2csc(NCc3ccco3)n2)c1`, the AC50 under setting [1] was 0.291 µM [rising, partial curve, poor fit].
For `COc1ccc2c(c1OC)C(=O)OC2C/C(=N\NC(N)=O)c1ccccc1` (stereo unspecified), the cell number change was -18.1%.
Consider `O=C(NCCCN1CCCC1=O)c1cccc(S(=O)(=O)N2CCN(c3ccc(F)cc3)CC2)c1`, for which the cell number change came to 22.3%. The AC50 under setting [2] is 0.411 µM [rising, partial curve].
As to `c1coc(CSCc2cn3cccnc3n2)c1`, the cell number change is -0.506%.
As to `Cc1ccc(C)c(N2N=C(C(=O)Nc3ccc(N4CCOCC4)cc3)CCC2=O)c1`, the cell number change was 4.59%. Moreover, under setting [2], the AC50 is 10.3 µM [rising, partial curve].
`CN(C)/C=C(\C=O)c1c(Cl)cccc1Cl`: the cell number change is 41.9%. The AC50 under setting [1] was 0.184 µM [rising, full curve, poor fit]. The AC50 under setting [2] was 3.26 µM [rising, full curve, poor fit].
Take `COc1ccc(C2/C=C\CN(C(=O)c3ccccc3)[C@H](Cc3ccccc3)C(=O)N2Cc2ccc(F)cc2)cc1` (stereo partly specified): the cell number change was 12.5%. Moreover, the AC50 under setting [2] is 2.91 µM [rising, partial curve, poor fit].
In the case of `Nc1nc(SCC(=O)NC2CCCc3ccccc32)n[nH]1` (stereo unspecified), the AC50 under setting [1] was 0.00411 µM [rising, full curve, poor fit].
As for `CC1CCCN(S(=O)(=O)c2ccc(NC(=O)C3CC(=O)N(C(C)(C)C)C3)cc2)C1` (stereo unspecified), the cell number change was -12.3%. For the same compound, under setting [2], the AC50 is 29.1 µM [falling, single point].
For `Cc1ccc(NC(=O)CSc2ccc(-c3ccccn3)nn2)cc1F`, the cell number change is -16.8%.
With `Cc1ccc(CNc2oc(C)nc2C#N)cc1`, the cell number change is -16.9%. Under setting [2], the AC50 was 29.1 µM [falling, single point].
Regarding `O=C(OCC#CCNc1nnc(-c2cccc3ccccc23)o1)c1cccs1`, the cell number change is 28.5%.
`CN1CCC(=NNc2ccc(S(=O)(=O)N3CCOCC3)cc2[N+](=O)[O-])CC1`: the cell number change was 22.7%. The AC50 under setting [1] is 1.84 µM [falling, partial curve, poor fit]. Further, under setting [2], the AC50 was 29.1 µM [rising, single point].
Take `COc1cccc(CN2CCC(C(=O)N3CCN(Cc4ccc5c(c4)OCO5)CC3)CC2)c1OC`: the AC50 under setting [2] is 29.1 µM [falling, single point].
In the case of `CC1CCN(C(=O)Cn2c3ccccc3c3nc4n(c(=O)c32)CCCS4)CC1`, the cell number change is -35.3%. Also, under setting [1], the AC50 was 9.2 µM [falling, partial curve]. The AC50 under setting [2] was 13 µM [falling, partial curve].
For the compound `COc1cc(NC(=O)Cn2c(-c3cncs3)nc3ccccc32)cc(OC)c1OC`, the cell number change was -13.3%. The AC50 under setting [2] is 13 µM [falling, single point].
Consider `CCCOc1ccc(CSc2ncn[nH]2)cc1`, for which the cell number change was -6.92%. Also, under setting [2], the AC50 is 13 µM [rising, partial curve].
In the case of `Cc1ccc(Cl)cc1NC(=O)c1ccc(Cn2cc(Cl)cn2)cc1`, the cell number change came to 6.33%. In addition, the AC50 under setting [2] is 7.31 µM [rising, partial curve].
As to `COC(=O)CCCC1=CC2=CC(=O)C(C)(OC(=O)c3cccs3)C(=O)C2=CN1CCN1CCOCC1` (stereo unspecified), the cell number change was determined as 34%. For the same compound, under setting [1], the AC50 was 0.0517 µM [rising, full curve, poor fit].
With `Cc1c(CCOC(=O)C2C3CC4CC(C3)CC2C4)sc[n+]1CC(=O)c1ccc(Br)cc1` (stereo unspecified), the cell number change was -61.9%. In addition, under setting [1], the AC50 is 32.6 µM [falling, single point].
Regarding `CCCn1c2ccccc2c2nnc(SCC(=O)OC)nc21`, the cell number change was -25.9%. The AC50 under setting [2] was 3.66 µM [rising, single point].
Regarding `CCOC(=O)c1cc(C(=O)OCC)c(=O)[nH]c1N1CCCCC1`, under setting [1], the AC50 is 0.00517 µM [rising, full curve, poor fit].
On to `Cc1ccnc(NC(=O)CSc2cc(=O)n(C)c3ccccc23)c1`, for which, under setting [1], the AC50 is 0.206 µM [falling, full curve, poor fit].
Turning to `O=C(c1cc(C2CC2)nn1-c1ccccc1)N1CCN(Cc2ccc(Cl)cc2)CC1`, the cell number change was -22.3%. For the same compound, the AC50 under setting [2] was 10.3 µM [falling, partial curve].
`COc1ccccc1CNS(=O)(=O)c1ccc2c(c1)CCCN2C(C)=O`: the cell number change was determined as 2.82%. In addition, the AC50 under setting [2] was 29.1 µM [rising, single point].
With `COc1cccc(C(=O)/C=C/Nc2ccc(S(=O)(=O)Nc3cccc(C(C)=O)c3)cc2)c1`, the AC50 under setting [2] is 10.3 µM [falling, partial curve].
Turning to `COc1ccc(/C=N/NC(=O)C(=O)NCC2CCCO2)cc1` (stereo unspecified), the cell number change was determined as 10.3%.
As for `O=C(CN(C(=O)c1csnn1)c1cccc2ccccc12)NCc1ccc(F)cc1`, the cell number change was found to be 23.4%. Further, the AC50 under setting [2] was 11.6 µM [rising, single point].
As for `Cn1c(=O)c2c(nc(CN3CCN(c4ccc(F)cc4)CC3)n2CCN2CCOCC2)n(C)c1=O`, the cell number change stood at 13%. In addition, the AC50 under setting [2] was 0.0291 µM [rising, full curve, poor fit].
Turning to `O=CN(Cc1ccco1)C1(C(=O)NC2CCCCC2)CCCCC1`, the cell number change is -11.2%.
For `CC(C(=O)Nc1ccc([N+](=O)[O-])cc1Cl)N1CCN(S(=O)(=O)c2cccs2)CC1` (stereo unspecified), the cell number change is -0.566%. Also, the AC50 under setting [2] was 0.00411 µM [rising, full curve, poor fit].
